Compound in this test: [O-][N+](C(C1=C(C(O)=C2)NC(C(C=C3)=CC=C3Cl)C4C1C=CC4)=C2Cl)=O
The test is described as follows: melting temperature shift (compound 7 minus DMSO); higher = compound stabilises the protein. The conditions noted are these: 10 µM. The procedure: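 Thermal proteome profiling (TMT mass spectrometry) in intact DAOY medulloblastoma cells or DAOY lysates treated with 10 µM compound 7 or DMSO, heated at 10 temperatures from 40.5 to 73.8 °C for 3 min. Melting curves were fitted with the Bioconductor TPP package, and the melting point difference between compound and vehicle is reported per protein (single curve per condition).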

Protein sequences, listed by entry. Tags and fused reporters are not part of them. Lines headed by an entry give the natural chain unless they say otherwise; changes in a name come on top.
UniProt Q9NUQ2: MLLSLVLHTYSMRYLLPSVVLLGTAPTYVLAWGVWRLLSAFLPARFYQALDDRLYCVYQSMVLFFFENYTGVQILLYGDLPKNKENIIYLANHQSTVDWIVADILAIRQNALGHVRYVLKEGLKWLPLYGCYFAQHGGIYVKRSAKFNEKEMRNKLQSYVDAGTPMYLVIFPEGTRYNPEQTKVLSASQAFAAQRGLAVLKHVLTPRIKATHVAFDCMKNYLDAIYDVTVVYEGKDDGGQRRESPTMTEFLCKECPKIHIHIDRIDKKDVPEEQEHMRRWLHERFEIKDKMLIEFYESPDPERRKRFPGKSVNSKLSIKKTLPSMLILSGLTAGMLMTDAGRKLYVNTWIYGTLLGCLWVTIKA
UniProt P61981: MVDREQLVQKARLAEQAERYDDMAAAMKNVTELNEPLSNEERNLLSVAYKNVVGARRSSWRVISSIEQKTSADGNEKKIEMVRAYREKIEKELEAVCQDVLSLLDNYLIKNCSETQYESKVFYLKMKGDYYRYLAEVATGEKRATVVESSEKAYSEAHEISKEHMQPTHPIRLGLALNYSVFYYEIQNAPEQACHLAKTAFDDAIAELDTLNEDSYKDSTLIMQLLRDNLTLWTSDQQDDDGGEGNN
UniProt P52948: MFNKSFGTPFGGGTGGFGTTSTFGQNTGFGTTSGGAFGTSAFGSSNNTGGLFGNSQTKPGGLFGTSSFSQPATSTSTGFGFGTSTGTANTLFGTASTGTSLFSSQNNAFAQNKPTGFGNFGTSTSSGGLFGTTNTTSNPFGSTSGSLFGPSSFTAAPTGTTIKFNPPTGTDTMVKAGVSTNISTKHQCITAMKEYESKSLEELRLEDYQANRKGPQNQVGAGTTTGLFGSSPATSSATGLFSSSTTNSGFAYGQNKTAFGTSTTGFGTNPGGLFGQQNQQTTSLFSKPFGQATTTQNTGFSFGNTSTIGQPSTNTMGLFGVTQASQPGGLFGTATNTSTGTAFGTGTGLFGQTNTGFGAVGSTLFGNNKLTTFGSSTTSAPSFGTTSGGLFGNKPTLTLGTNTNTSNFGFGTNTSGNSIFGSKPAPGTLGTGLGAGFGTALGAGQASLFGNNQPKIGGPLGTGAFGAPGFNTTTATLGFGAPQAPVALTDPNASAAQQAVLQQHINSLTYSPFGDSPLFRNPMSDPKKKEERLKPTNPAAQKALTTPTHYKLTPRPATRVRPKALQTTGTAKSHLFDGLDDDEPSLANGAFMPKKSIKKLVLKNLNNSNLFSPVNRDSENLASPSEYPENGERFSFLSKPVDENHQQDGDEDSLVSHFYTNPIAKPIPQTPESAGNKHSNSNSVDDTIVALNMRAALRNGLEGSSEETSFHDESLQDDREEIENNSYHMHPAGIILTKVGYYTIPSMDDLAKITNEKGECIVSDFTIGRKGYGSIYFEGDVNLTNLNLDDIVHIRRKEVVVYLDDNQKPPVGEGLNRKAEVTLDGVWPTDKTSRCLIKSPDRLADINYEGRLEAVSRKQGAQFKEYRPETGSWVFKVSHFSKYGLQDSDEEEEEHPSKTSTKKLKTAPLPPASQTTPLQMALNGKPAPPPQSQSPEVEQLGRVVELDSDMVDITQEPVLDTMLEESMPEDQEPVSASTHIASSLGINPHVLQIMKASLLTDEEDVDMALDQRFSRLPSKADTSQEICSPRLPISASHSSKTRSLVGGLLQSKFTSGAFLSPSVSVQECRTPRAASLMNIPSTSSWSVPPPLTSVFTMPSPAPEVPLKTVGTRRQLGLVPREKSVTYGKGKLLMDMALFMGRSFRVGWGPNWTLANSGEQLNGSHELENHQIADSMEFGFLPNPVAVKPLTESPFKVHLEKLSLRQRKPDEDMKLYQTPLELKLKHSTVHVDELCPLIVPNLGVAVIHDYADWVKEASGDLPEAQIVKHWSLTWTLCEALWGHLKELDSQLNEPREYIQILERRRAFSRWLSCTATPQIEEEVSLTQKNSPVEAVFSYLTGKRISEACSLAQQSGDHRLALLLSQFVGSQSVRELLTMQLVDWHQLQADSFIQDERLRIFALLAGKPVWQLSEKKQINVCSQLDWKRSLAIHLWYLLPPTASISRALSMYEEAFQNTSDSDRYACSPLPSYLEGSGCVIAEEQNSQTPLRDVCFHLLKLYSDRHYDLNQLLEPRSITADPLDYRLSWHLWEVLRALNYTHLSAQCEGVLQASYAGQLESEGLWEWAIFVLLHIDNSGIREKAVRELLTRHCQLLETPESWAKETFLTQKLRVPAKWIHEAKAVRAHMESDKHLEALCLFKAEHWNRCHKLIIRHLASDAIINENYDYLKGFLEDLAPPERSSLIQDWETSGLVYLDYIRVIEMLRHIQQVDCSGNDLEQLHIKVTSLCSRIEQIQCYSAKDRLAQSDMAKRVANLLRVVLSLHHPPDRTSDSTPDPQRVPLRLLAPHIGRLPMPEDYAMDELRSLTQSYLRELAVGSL
UniProt Q53H80, whole entry: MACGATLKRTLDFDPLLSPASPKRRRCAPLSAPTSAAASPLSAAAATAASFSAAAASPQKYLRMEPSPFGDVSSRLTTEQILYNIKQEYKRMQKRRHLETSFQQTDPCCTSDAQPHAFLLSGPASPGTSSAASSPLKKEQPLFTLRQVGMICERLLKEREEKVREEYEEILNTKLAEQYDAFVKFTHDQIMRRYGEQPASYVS
UniProt P17081: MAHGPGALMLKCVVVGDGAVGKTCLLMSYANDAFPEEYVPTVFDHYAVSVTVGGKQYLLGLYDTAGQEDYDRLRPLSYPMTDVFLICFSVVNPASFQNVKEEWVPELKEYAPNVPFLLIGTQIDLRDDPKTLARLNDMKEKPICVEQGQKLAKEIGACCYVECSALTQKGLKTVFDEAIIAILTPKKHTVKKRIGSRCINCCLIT
UniProt Q9Y244: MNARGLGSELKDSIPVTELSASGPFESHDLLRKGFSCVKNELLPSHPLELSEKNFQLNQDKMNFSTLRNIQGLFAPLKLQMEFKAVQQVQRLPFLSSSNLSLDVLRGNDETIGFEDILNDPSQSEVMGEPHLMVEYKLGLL
UniProt Q9BYJ9: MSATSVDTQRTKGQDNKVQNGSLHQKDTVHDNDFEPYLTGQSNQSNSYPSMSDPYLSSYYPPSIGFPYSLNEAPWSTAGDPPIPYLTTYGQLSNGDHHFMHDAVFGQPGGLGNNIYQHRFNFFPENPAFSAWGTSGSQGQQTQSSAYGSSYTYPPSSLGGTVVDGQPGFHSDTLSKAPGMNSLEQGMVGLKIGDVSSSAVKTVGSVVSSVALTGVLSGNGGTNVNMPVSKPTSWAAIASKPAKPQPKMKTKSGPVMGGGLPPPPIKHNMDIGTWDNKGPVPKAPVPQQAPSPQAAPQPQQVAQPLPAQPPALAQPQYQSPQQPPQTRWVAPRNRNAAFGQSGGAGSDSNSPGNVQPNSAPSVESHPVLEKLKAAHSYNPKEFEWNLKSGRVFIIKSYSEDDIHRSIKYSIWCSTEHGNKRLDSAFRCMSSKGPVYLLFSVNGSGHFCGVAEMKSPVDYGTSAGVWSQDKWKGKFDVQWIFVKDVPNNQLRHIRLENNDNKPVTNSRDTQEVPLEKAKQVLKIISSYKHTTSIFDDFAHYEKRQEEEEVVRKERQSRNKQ
UniProt O00287: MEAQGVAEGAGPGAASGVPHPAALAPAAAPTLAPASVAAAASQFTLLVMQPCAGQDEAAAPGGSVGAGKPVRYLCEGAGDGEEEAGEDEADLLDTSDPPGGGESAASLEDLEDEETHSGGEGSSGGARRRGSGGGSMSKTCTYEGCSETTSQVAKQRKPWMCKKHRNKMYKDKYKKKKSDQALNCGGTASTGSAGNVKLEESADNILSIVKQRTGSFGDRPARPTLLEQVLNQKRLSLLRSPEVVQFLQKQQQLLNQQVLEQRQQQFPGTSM
UniProt P17174: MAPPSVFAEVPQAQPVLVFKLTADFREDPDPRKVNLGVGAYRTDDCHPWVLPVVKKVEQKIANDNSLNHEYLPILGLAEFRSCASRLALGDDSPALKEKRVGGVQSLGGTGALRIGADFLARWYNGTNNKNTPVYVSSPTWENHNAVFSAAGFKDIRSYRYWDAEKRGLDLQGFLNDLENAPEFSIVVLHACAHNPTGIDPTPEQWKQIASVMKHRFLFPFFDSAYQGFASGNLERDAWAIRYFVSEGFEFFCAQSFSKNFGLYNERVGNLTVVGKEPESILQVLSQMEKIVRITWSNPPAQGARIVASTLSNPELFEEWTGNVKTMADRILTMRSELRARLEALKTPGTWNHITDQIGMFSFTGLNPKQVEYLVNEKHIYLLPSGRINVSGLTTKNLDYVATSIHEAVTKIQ
UniProt Q9BXW9: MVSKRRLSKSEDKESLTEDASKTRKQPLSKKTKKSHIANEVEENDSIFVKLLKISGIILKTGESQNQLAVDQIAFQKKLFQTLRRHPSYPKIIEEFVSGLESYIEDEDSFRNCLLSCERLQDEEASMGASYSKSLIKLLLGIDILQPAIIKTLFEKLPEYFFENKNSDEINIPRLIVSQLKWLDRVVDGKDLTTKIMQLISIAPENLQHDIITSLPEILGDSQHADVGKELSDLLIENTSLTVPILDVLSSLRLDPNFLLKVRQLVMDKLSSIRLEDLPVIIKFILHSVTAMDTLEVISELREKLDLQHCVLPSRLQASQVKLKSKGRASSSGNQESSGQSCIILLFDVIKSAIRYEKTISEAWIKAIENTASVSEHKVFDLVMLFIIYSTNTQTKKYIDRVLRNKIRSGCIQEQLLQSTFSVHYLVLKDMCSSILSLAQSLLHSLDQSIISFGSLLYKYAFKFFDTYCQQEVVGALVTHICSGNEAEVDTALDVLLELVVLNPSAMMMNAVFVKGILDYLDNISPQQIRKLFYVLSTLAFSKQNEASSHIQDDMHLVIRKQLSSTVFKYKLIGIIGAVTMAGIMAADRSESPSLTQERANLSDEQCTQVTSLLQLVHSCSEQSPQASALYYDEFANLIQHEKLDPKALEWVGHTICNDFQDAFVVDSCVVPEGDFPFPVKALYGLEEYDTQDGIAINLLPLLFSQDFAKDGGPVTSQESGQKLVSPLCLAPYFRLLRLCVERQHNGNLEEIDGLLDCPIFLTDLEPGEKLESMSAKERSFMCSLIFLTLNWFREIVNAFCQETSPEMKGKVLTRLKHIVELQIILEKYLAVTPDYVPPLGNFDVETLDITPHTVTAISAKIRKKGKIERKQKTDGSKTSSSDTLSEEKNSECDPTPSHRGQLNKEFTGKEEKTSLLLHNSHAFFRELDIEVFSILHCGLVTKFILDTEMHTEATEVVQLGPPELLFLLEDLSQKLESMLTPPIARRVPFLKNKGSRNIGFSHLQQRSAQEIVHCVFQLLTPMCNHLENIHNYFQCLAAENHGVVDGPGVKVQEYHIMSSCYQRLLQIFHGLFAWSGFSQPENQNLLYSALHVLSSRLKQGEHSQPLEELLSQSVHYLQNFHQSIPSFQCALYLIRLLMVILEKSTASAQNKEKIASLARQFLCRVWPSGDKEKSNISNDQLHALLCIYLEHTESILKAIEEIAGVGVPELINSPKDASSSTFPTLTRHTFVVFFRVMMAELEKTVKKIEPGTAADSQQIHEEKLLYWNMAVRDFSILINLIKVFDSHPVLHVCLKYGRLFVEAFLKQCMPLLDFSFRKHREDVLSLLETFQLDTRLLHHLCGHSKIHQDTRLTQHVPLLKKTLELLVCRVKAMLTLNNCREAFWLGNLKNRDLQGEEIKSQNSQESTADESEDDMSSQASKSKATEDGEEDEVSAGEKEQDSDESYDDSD
UniProt Q14728: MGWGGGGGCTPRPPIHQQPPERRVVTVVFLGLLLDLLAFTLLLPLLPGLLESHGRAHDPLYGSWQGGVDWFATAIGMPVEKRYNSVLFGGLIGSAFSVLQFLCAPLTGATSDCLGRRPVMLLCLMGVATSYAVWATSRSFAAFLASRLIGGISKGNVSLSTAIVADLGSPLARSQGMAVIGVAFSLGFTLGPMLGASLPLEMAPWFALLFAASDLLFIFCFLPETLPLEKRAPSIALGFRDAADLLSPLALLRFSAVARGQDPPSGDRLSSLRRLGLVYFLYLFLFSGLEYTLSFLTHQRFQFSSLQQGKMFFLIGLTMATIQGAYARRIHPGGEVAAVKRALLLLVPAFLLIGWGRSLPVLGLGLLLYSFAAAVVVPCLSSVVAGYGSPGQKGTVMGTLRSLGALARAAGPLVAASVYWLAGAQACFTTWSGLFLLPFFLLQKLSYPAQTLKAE
UniProt P49585: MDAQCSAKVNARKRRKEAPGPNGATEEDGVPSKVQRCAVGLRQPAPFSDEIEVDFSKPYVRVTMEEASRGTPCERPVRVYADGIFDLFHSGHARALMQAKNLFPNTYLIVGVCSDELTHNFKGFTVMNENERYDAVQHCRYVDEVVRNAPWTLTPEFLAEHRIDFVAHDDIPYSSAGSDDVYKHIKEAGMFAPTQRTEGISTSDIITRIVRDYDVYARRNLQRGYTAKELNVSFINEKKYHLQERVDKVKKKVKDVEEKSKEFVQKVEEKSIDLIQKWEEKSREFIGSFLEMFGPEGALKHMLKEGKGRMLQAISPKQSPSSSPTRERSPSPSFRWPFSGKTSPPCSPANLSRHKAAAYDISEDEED
UniProt Q9HD34: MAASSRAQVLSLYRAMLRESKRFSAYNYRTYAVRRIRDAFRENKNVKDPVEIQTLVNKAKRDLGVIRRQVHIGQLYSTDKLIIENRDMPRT

Where [1] appears, read: system: DAOY cell lysate, treatment time: 20 min, 4 °C.
Setting [2] is: system: intact DAOY cells, treatment time: 90 min, 37 °C.

Repeats are few or missing, and single values can be far off.

As to AGPAT5 (UniProt Q9NUQ2), the melting temperature shift under setting [1] stood at 3.68 °C.
Turning to RBM28 (UniProt Q9NW13), the melting temperature shift under setting [1] worked out at 0.881 °C and the melting temperature shift under setting [2] is 1.11 °C.
As for HIP1R (UniProt O75146), the melting temperature shift is, setting by setting: under setting [1], 1.47 °C; under setting [2], -0.624 °C.
The like results for NCS1 (UniProt P62166) were, in that order, -0.248 °C and 1.96 °C.
The like results for RANBP10 (UniProt Q6VN20) were, in that order, -0.36 °C and 2.35 °C.
With SLC6A6 (UniProt P31641), under setting [2], the melting temperature shift is -2.58 °C.
For the target YWHAG (UniProt P61981), the melting temperature shift is -1.19 °C under setting [1] and 1.26 °C under setting [2].
Consider UniProt Q9Y2W6, for which the melting temperature shift under setting [2] was -0.943 °C.
Regarding NUP98 (UniProt P52948), the melting temperature shift was -0.355 °C under setting [1] and 0.731 °C under setting [2].
On the same counts, the results for CCDC97 (UniProt Q96F63) are -2.77 °C and -1.34 °C.
With AKIRIN2 (UniProt Q53H80), the melting temperature shift under setting [1] came out at 1.85 °C.
As for UniProt P17081, the melting temperature shift under setting [2] was -2.07 °C.
On to PHKA1 (UniProt P46020), for which the melting temperature shift under setting [1] is -0.385 °C and the melting temperature shift under setting [2] is -0.367 °C.
For the target ATXN2 (UniProt Q99700), the melting temperature shift under setting [1] is -0.716 °C and the melting temperature shift under setting [2] was -0.165 °C.
The like results for UniProt Q9Y244 were, in that order, 0.33 °C and 2.41 °C.
The like results for LARP1 (UniProt Q6PKG0) were, in that order, -0.372 °C and -0.242 °C.
The like results for PSMC4 (UniProt P43686) were, in that order, -0.42 °C and -1.24 °C.
For the target PEX13 (UniProt Q92968), the melting temperature shift reads like this: under setting [1], 0.434 °C; under setting [2], -0.935 °C.
On the same counts, the results for AVEN (UniProt Q9NQS1) are 0.995 °C and -1.65 °C.
On the same counts, the results for EPN1 (UniProt Q9Y6I3) are -1.1 °C and 0.402 °C.
In the case of NAE1 (UniProt Q13564), the melting temperature shift under setting [1] is -0.355 °C and the melting temperature shift under setting [2] is -0.406 °C.
The like results for PTGES2 (UniProt Q9H7Z7) were, in that order, 0.84 °C and 0.309 °C.
The like results for YTHDF1 (UniProt Q9BYJ9) were, in that order, 0.0661 °C and 1.25 °C.
Regarding UniProt O00287, the melting temperature shift under setting [2] is -0.862 °C.
Still for that read-out and setting: with DHX34 (UniProt Q14147) the figure was 0.095 °C.
ACTR8 (UniProt Q9H981): the melting temperature shift reads like this: under setting [1], 0.68 °C; under setting [2], -5.44 °C.
The like results for GOT1 (UniProt P17174) were, in that order, -0.225 °C and -1.26 °C.
On the same counts, the results for UniProt Q05397 are -0.438 °C and -0.992 °C.
Consider CASP8 (UniProt Q14790), for which the melting temperature shift under setting [1] is -1.31 °C and the melting temperature shift under setting [2] was 0.0169 °C.
Regarding RABGGTB (UniProt P53611), the melting temperature shift is -0.842 °C under setting [1] and 1.11 °C under setting [2].
On the same counts, the results for FANCD2 (UniProt Q9BXW9) are -0.594 °C and 1.2 °C.
The like results for NDUFB10 (UniProt O96000) were, in that order, 1.6 °C and -0.45 °C.
On the same counts, the results for UniProt Q14728 are 1.97 °C and 0.843 °C.
For PCYT1A (UniProt P49585), the melting temperature shift reads like this: under setting [1], 0.279 °C; under setting [2], -0.0157 °C.
Turning to ARFGEF2 (UniProt Q9Y6D5), the melting temperature shift under setting [1] is -0.972 °C and the melting temperature shift under setting [2] is -1.21 °C.
Consider LYRM4 (UniProt Q9HD34), for which the melting temperature shift came to 0.823 °C under setting [1] and 0.231 °C under setting [2].
The like results for ESYT1 (UniProt Q9BSJ8) were, in that order, 0.951 °C and -0.812 °C.
As for UniProt P30613, under setting [2], the melting temperature shift was -1.23 °C.
Turning to VDAC3 (UniProt Q9Y277), the melting temperature shift under setting [1] amounted to 2.57 °C and the melting temperature shift under setting [2] was -0.539 °C.
The like results for NLE1 (UniProt Q9NVX2) were, in that order, 1.09 °C and 4.01 °C.
The like results for NDUFV2 (UniProt P19404) were, in that order, 1.46 °C and 0.0578 °C.
For SUPT4H1 (UniProt P63272), the melting temperature shift is -1.47 °C under setting [1] and -0.364 °C under setting [2].

Values taken from the supplement of paper PMC10060354, “Discovery of a small molecule ligand of FRS2 that inhibits invasion and tumor growth” (Cellular Oncology, 2022).
